Measured data: PubChem BioAssay AID1053208 (Peter MacCallum Cancer Centre, 2014)
The whole screen tested about 17,000 reagents; below is a part drawn at random. 788 of all reagents (4.7%) count as active. 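Calls rest on z-score classes alone; an extra cut-off of viability at most 70% of control was not applied to them.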 The numbers tell different reagents against one gene apart. Not all columns of the deposit are shown. No sequences are given here.

Screen: 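Genes whose silencing cuts survival of bone tumour cells only with doxorubicin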 (primary screen)
Cell system: mouse osteosarcoma cells, early-passage culture from an engineered mouse model of fibroblastic bone tumour
Reagent: siRNA pool against mouse genes, 40 nM
Time to read-out: about 120 h (48 h before drug, then 72 h with drug)
Treatment: doxorubicin 100 nM for 72 h, roughly 30-40% inhibitory dose
Read-out: 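Luminescent ATP signal taken as viability with or without 100 nM doxorubicin for 72 h; mean of two wells set against non-targeting siRNA and turned into robust z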
Direction: viability z-score with doxorubicin: higher = more viable cells under doxorubicin; viability z-score without drug: higher = more viable cells with knock-down alone
Rule for the call: 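Called active if knock-down leaves viability unchanged without drug (z within -2 to 2) but lowers it with doxorubicin (z at or under -2)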

Gene | pool no. | combined z-score class | viability z-score with doxorubicin | viability z-score without drug | Outcome
Supt3 | 1 | no change with or without drug | 0.79 | 0 | inactive
Mamstr | 1 | no change with or without drug | -0.9 | 0 | inactive
Tada2a | 1 | no change with or without drug | 0.67 | 0.17 | inactive
Dchs1 | 1 | no change with or without drug | -1.35 | -1.18 | inactive
Nxf2 | 1 | no change with or without drug | -1.69 | -0.34 | inactive
Jtb | 1 | no change with or without drug | -0.45 | 0.51 | inactive
Sel1l3 | 1 | low cell count with and without drug | -3.15 | -2.53 | inactive
Clcnkb | 1 | no change with or without drug | -0.34 | -0.51 | inactive
Gfod2 | 1 | no change with or without drug | -0.11 | 0.17 | inactive
Zfp935 | 1 | no change with or without drug | 1.35 | 1.18 | inactive
Adra1b | 1 | no change with or without drug | -1.12 | 0.17 | inactive
Adra1b | 2 | no change with or without drug | 0.11 | -0.17 | inactive
Fuca2 | 1 | no change with or without drug | -0.11 | -1.18 | inactive
Prkab2 | 1 | high cell count with and without drug | 2.02 | 2.53 | inactive
Casp8 | 1 | no change with or without drug | 0.34 | 0.84 | inactive
Shisa2 | 1 | no change with or without drug | 1.12 | 1.01 | inactive
Shfl | 1 | no change with or without drug | -1.12 | -1.01 | inactive
Or5b104 | 1 | no change with or without drug | -0.11 | -0.51 | inactive
P2ry14 | 1 | no change with or without drug | 1.12 | 0 | inactive
Tas2r130 | 1 | low cell count with doxorubicin only | -2.02 | 0.34 | active

Laid out differently: results already given
Fuca2
- combined z-score class: no change with or without drug
- viability z-score with doxorubicin: -0.11
- viability z-score without drug: -1.18
- Outcome: inactive

Prkab2
- combined z-score class: high cell count with and without drug
- viability z-score with doxorubicin: 2.02
- viability z-score without drug: 2.53
- Outcome: inactive
